Results deposited as PubChem BioAssay AID1259405 (NCATS, 2018)
Assay: 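Silenced genes that increase secreted GFP made by CHO cells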 (primary screen). Cell system: Chinese hamster CHO-K1 ovary cells with stable secreted eGFP expression. Reagent: single siRNA against mouse genes, 0.8 pmol siRNA per well (2 µl of 400 nM stock). Duration: 3 days. Measured: 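Per-well intracellular GFP measured by laser scanning cytometry, plus viability from ATP luminescence, each relative to plate median of non-targeting control wells, in %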. Scale: GFP, % of control: higher = more GFP per well, higher productivity; viability (ATP), % of control: higher = more viable cells (more ATP). Hit rule: 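a knock-down is called active if GFP reaches 120% or more of non-targeting control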.
Shown is one part, drawn at random, of about 50,000 reagents. In the full data, about 4,000 (8%) are marked active. 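Mouse siRNA library applied to hamster cells; one well for each siRNA.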 Reagents against one gene are numbered here.

| gene | reagent no. | GFP, % of control | viability (ATP), % of control | Call |
| --- | --- | --- | --- | --- |
| Borcs5 (BLOC-1 related complex subunit 5) | 1 | 57.4 | 76 | inactive |
| Borcs5 (BLOC-1 related complex subunit 5) | 2 | 82.4 | 73.3 | inactive |
| Borcs5 (BLOC-1 related complex subunit 5) | 3 | 106 | 78.3 | inactive |
| Cfhr1 (complement factor H-related 1) | 1 | 58 | 78.4 | inactive |
| Cfhr1 (complement factor H-related 1) | 2 | 112 | 84.5 | inactive |
| Cfhr1 (complement factor H-related 1) | 3 | 59.8 | 44.6 | inactive |
| Nrg4 (neuregulin 4) | 1 | 72.6 | 53.5 | inactive |
| Nrg4 (neuregulin 4) | 2 | 55.5 | 76.9 | inactive |
| Nrg4 (neuregulin 4) | 3 | 90.1 | 41.9 | inactive |
| BC061237 (cDNA sequence BC061237) | 1 | 112 | 54.4 | inactive |
| BC061237 (cDNA sequence BC061237) | 2 | 81.4 | 92.5 | inactive |
| BC061237 (cDNA sequence BC061237) | 3 | 92.5 | 108 | inactive |
| Otud5 (OTU domain containing 5) | 1 | 91.5 | 83.2 | inactive |
| Otud5 (OTU domain containing 5) | 2 | 138 | 60.1 | active |
| Otud5 (OTU domain containing 5) | 3 | 80.7 | 72 | inactive |
| Hsd11b1 (hydroxysteroid 11-beta dehydrogenase 1) | 1 | 76.8 | 73.6 | inactive |
| Hsd11b1 (hydroxysteroid 11-beta dehydrogenase 1) | 2 | 65 | 77.8 | inactive |
| Hsd11b1 (hydroxysteroid 11-beta dehydrogenase 1) | 3 | 59.6 | 66.9 | inactive |
| Rad51 (RAD51 recombinase) | 1 | 60.1 | 74.7 | inactive |
| Rad51 (RAD51 recombinase) | 2 | 84.4 | 77.7 | inactive |
| Mrnip (MRN complex interacting protein) | 1 | 118 | 70.4 | inactive |
| Mrnip (MRN complex interacting protein) | 2 | 36.5 | 69.8 | inactive |
| Mrnip (MRN complex interacting protein) | 3 | 77 | 65.6 | inactive |
| Cldn34b3 (claudin 34B3) | 1 | 48.4 | 41.6 | inactive |
| Cldn34b3 (claudin 34B3) | 2 | 46.3 | 48.9 | inactive |
| Cldn34b3 (claudin 34B3) | 3 | 73.7 | 68.8 | inactive |
| Anxa8 (annexin A8) | 1 | 76.4 | 101 | inactive |
| Anxa8 (annexin A8) | 2 | 54 | 52.1 | inactive |
| Anxa8 (annexin A8) | 3 | 53.8 | 59.5 | inactive |
| Wdr19 (WD repeat domain 19) | 1 | 101 | 79.1 | inactive |
| Wdr19 (WD repeat domain 19) | 2 | 104 | 89.7 | inactive |
| Wdr19 (WD repeat domain 19) | 3 | 88.8 | 84.1 | inactive |
| Prkrip1 (Prkr interacting protein 1 (IL11 inducible)) | 1 | 64.3 | 51.1 | inactive |
| Prkrip1 (Prkr interacting protein 1 (IL11 inducible)) | 2 | 86.3 | 52.1 | inactive |
| Prkrip1 (Prkr interacting protein 1 (IL11 inducible)) | 3 | 86.1 | 92.6 | inactive |
| Arhgap11a (Rho GTPase activating protein 11A) | 1 | 88.6 | 118 | inactive |
| Arhgap11a (Rho GTPase activating protein 11A) | 2 | 106 | 105 | inactive |
| Arhgap11a (Rho GTPase activating protein 11A) | 3 | 111 | 117 | inactive |
| Ctu2 (cytosolic thiouridylase subunit 2) | 1 | 104 | 92.6 | inactive |
| Ctu2 (cytosolic thiouridylase subunit 2) | 2 | 114 | 71.7 | inactive |
| Ctu2 (cytosolic thiouridylase subunit 2) | 3 | 69.6 | 68.7 | inactive |
| Ppp1r14a (protein phosphatase 1, regulatory inhibitor subunit 14A) | 1 | 106 | 89.5 | inactive |
| Ppp1r14a (protein phosphatase 1, regulatory inhibitor subunit 14A) | 2 | 88.6 | 60.3 | inactive |
| Ppp1r14a (protein phosphatase 1, regulatory inhibitor subunit 14A) | 3 | 75.4 | 73.6 | inactive |
| Cd300ld3 (CD300 molecule like family member D3) | 1 | 194 | 77.4 | active |
| Cd300ld3 (CD300 molecule like family member D3) | 2 | 71.6 | 71.8 | inactive |
| Cd300ld3 (CD300 molecule like family member D3) | 3 | 105 | 79.2 | inactive |
| Dnah1 (dynein, axonemal, heavy chain 1) | 1 | 80.8 | 96.3 | inactive |
| Dnah1 (dynein, axonemal, heavy chain 1) | 2 | 69 | 45.8 | inactive |
| Dnah1 (dynein, axonemal, heavy chain 1) | 3 | 67.8 | 88.3 | inactive |
| Dnah1 (dynein, axonemal, heavy chain 1) | 4 | 130 | 83.9 | active |
| Dnah1 (dynein, axonemal, heavy chain 1) | 5 | 47.7 | 54.8 | inactive |
| Dnah1 (dynein, axonemal, heavy chain 1) | 6 | 68.1 | 71.4 | inactive |
| Trak2 (trafficking protein, kinesin binding 2) | 1 | 80.6 | 86.7 | inactive |
| Trak2 (trafficking protein, kinesin binding 2) | 2 | 54 | 31.2 | inactive |
| Trak2 (trafficking protein, kinesin binding 2) | 3 | 98.9 | 47.7 | inactive |
| Slc12a7 | 1 | 82.2 | 94.7 | inactive |
| Slc12a7 | 2 | 69.2 | 47.1 | inactive |
| Slc12a7 | 3 | 81.4 | 78.3 | inactive |
| Atg14 (autophagy related 14) | 1 | 74.8 | 122 | inactive |
| Atg14 (autophagy related 14) | 2 | 96.9 | 96 | inactive |
| Atg14 (autophagy related 14) | 3 | 97.8 | 76.7 | inactive |
| Gprc5c (G protein-coupled receptor, family C, group 5, member C) | 1 | 107 | 111 | inactive |
| Gprc5c (G protein-coupled receptor, family C, group 5, member C) | 2 | 75.1 | 68 | inactive |
| Gprc5c (G protein-coupled receptor, family C, group 5, member C) | 3 | 69.6 | 71.3 | inactive |
| Spp1 (secreted phosphoprotein 1) | 1 | 109 | 134 | inactive |
| Spp1 (secreted phosphoprotein 1) | 2 | 96.1 | 90.8 | inactive |
| Niban1 (niban apoptosis regulator 1) | 1 | 73.6 | 71.8 | inactive |
| Niban1 (niban apoptosis regulator 1) | 2 | 68.3 | 84.4 | inactive |
| Niban1 (niban apoptosis regulator 1) | 3 | 62.4 | 84.8 | inactive |
| Slc7a15 | 1 | 84.6 | 85.2 | inactive |
| Slc7a15 | 2 | 69.6 | 59.3 | inactive |
| Slc7a15 | 3 | 77.2 | 101 | inactive |
| Abca17 (ATP-binding cassette, sub-family A member 17) | 1 | 78.8 | 51 | inactive |
| Abca17 (ATP-binding cassette, sub-family A member 17) | 2 | 22.4 | 47.3 | inactive |
| Abca17 (ATP-binding cassette, sub-family A member 17) | 3 | 63.6 | 96.9 | inactive |
| Pigs (phosphatidylinositol glycan anchor biosynthesis, class S) | 1 | 127 | 66.3 | active |
| Pigs (phosphatidylinositol glycan anchor biosynthesis, class S) | 2 | 62.6 | 64.8 | inactive |
| Pigs (phosphatidylinositol glycan anchor biosynthesis, class S) | 3 | 103 | 105 | inactive |
| Nr2f2 (nuclear receptor subfamily 2, group F, member 2) | 1 | 65.2 | 96.2 | inactive |
| Nr2f2 (nuclear receptor subfamily 2, group F, member 2) | 2 | 112 | 97 | inactive |
| Zdhhc7 (zinc finger, DHHC domain containing 7) | 1 | 71 | 42.7 | inactive |
| Zdhhc7 (zinc finger, DHHC domain containing 7) | 2 | 108 | 55.8 | inactive |
| Zdhhc7 (zinc finger, DHHC domain containing 7) | 3 | 84.4 | 99.4 | inactive |

Entries listed so far whose gene name begins with A or a (12):
| gene | reagent no. | GFP, % of control | viability (ATP), % of control | Call |
| --- | --- | --- | --- | --- |
| Anxa8 (annexin A8) | 1 | 76.4 | 101 | inactive |
| Anxa8 (annexin A8) | 2 | 54 | 52.1 | inactive |
| Anxa8 (annexin A8) | 3 | 53.8 | 59.5 | inactive |
| Arhgap11a (Rho GTPase activating protein 11A) | 1 | 88.6 | 118 | inactive |
| Arhgap11a (Rho GTPase activating protein 11A) | 2 | 106 | 105 | inactive |
| Arhgap11a (Rho GTPase activating protein 11A) | 3 | 111 | 117 | inactive |
| Atg14 (autophagy related 14) | 1 | 74.8 | 122 | inactive |
| Atg14 (autophagy related 14) | 2 | 96.9 | 96 | inactive |
| Atg14 (autophagy related 14) | 3 | 97.8 | 76.7 | inactive |
| Abca17 (ATP-binding cassette, sub-family A member 17) | 1 | 78.8 | 51 | inactive |
| Abca17 (ATP-binding cassette, sub-family A member 17) | 2 | 22.4 | 47.3 | inactive |
| Abca17 (ATP-binding cassette, sub-family A member 17) | 3 | 63.6 | 96.9 | inactive |
